According to patent US20250332300A1 (priority 2024, published 2025):

Experiment: general procedure: Fmoc solid-phase peptide synthesis; Fmoc-Rink Amide ProTide resin, Fmoc-Rink Amide AM resin, Fmoc-Sieber resin or Fmoc-Lys(Boc)-Wang resin; DIC/Oxyma Pure; HATU; PyAOP; DIPEA as base
Conditions: for cyclisation yield: cyclisation step; for conjugation yield: conjugation step; for isolated mass / isolated yield: whole synthesis; for step yield: late stage modification step

(3S,6S,9S,12S,15S,18S,21S,24S,27S)-9-((1H-indol-3-yl)methyl)-27-acetamido-N—((S)-1-amino-3-(4-fluorophenyl)-1-oxopropan-2-yl)-6-cyclopropyl-12-((5-hydroxy-1H-indol-3-yl)methyl)-15,21-bis(hydroxymethyl)-24-((6-hydroxypyridin-3-yl)methyl)-N,4,16,19-tetramethyl-5,8,11,14,17,20,23,26,30-nonaoxo-18-phenethyl-1,4,7,10,13,16,19,22,25-nonaazacyclotriacontane-3-carboxamide
cyclisation yield (on A1-1, TFA salt): 19% yield

(3S,6S,9S,12S,15S,18S,21S,24S,27S)-9-((1H-indol-3-yl)methyl)-27-acetamido-15-(4-acetamidobutyl)
conjugation yield (TFA salt): 81% yield

2-(4-(((S)-5-((S)-2-((3S,6S,9S,12S,15S,18S,21S,24S,27S)-9-((1H-indol-3-yl)methyl)-15-(4-acetamidobutyl)-27-amino-12-((5-hydroxy-1H-indol-3-yl)methyl)-24-(4-hydroxybenzyl)-6-((S)-1-hydroxyethyl)-21-(hydroxymethyl)-N,4,16,19-tetramethyl-5,8,11,14,17,20,23,26,30-nonaoxo-18-phenethyl-1,4,7,10,13,16,19,22,25-nonaazacyclotriacontane-3-carboxamido)-3-(4-fluorophenyl)propanamido)-6-amino-6-oxohexyl)carbamoyl)piperazin-1-yl) acetic acid TFA salt
isolated mass (scale 0.375 mmol, TFA salt): 27.5 mg | isolated yield (scale 0.375 mmol, TFA salt): 3.8% yield

(6S,9S,12S,15S,18S,21S,24S,27S,30S)-12-((1H-indol-3-yl)methyl)-30-acetamido-18-(4-acetamidobutyl)-N—((S)-1-(((S)-1-amino-6-azido-1-oxohexan-2-yl)amino)-3-(4-fluorophenyl)-1-oxopropan-2-yl)-9-cyclopropyl-15-((5-hydroxy-1H-indol-3-yl)methyl)-27-(4-hydroxybenzyl)-24-(hydroxymethyl)-N,7,19,22-tetramethyl-3,8,11,14,17,20,23,26,29-nonaoxo-21-phenethyl-1-oxa-4,7,10,13,16,19,22,25,28-nonaazacyclohentriacontane-6-carboxamide
step yield (on A49-3, TFA salt): 28% yield

(3S,6S,9S,12S,15S,18S,21S,24S,27S)-9-((1H-indol-3-yl)methyl)-27-acetamido-15-(4-acetamidobutyl)-N-((S)-1-amino-3-(4-fluorophenyl)-1-oxopropan-2-yl)-6-cyclopropyl-24-(4-hydroxybenzyl)-21-(hydroxymethyl)-N,4,16,19-tetramethyl-5,8,11,14,17,20,23,26,31-nonaoxo-12-pentyl-18-phenethyl-1,4,7,10,13,16,19,22,25-nonaazacyclohentriacontane-3-carboxamide
isolated mass (TFA salt): 28.5 mg | isolated yield (scale of the general procedure 0.100 mmol, TFA salt): 20% yield

NAc-hE-Y-S-NMehF-MeKAc-W(5OH)-W-cProG-NMeDap-NMeF(4F)—K(N3)-propargyl-Gly-SAR14-K(DOTA)-SAR14-NAc-propargyl-Gly-K(N3)-NMeF(4F)-NMeDap-cProG-W-W(5OH)-MeKAc-NMehF-S—Y-NAc-hE
conjugation yield (TFA salt): 69% yield

(3S,6S,9S,12S,15S,18S,21S,24S,27S)-9-((1H-indol-3-yl)methyl)-27-acetamido-15-(4-acetamidobutyl)-6-cyclopropyl-N—((S)-1-(((S)-1,6-diamino-1-oxohexan-2-yl)amino)-3-(4-fluorophenyl)-1-oxopropan-2-yl)-12-((5-hydroxy-1H-indol-3-yl)methyl)-24-(4-hydroxybenzyl)-21-(hydroxymethyl)-N,4,16,19-tetramethyl-5,8,11,14,17,20,23,26,31-nonaoxo-18-phenethyl-1,4,7,10,13,16,19,22,25-nonaazacyclohentriacontane-3-carboxamide TFA salt
step yield (on A74, TFA salt): 90% yield

(3S,6S,9S,12S,15S,18S,21S,24S,27S)-9-((1H-indol-3-yl)methyl)-27-acetamido-N—((S)-1-amino-3-(4-fluorophenyl)-1-oxopropan-2-yl)-6-cyclopropyl-12-((5-hydroxy-1H-indol-3-yl)methyl)-24-(4-hydroxybenzyl)-15,21-bis(hydroxymethyl)-N,4,16,19-tetramethyl-5,8,11,14,17,20,23,26,30-nonaoxo-18-phenethyl-1,4,7,10,13,16,19,22,25-nonaazacyclotriacontane-3-carboxamide
cyclisation yield (on A25-2, TFA salt): 20% yield

(3S,6S,9S,12S,15S,18S,21S,24S,27S)-9-((1H-indol-3-yl)methyl)-15-(4-acetamidobutyl)-27-amino-N—((S)-1-amino-3-(4-fluorophenyl)-1-oxopropan-2-yl)-6-cyclopropyl-12-((5-hydroxy-1H-indol-3-yl)methyl)-24-(4-hydroxybenzyl)-21-(hydroxymethyl)-N,4,16,19-tetramethyl-5,8,11,14,17,20,23,26,31-nonaoxo-18-phenethyl-1,4,7,10,13,16,19,22,25-nonaazacyclohentriacontane-3-carboxamide 5 TFA salt
isolated mass (scale 100 μmol, TFA salt): 15.4 mg | isolated yield (scale 100 μmol, TFA salt): 6.6% yield

2-(4-(((S)-5-((S)-2-((3S,6S,9S,12S,15S,18S,21S,24S,27S)-9-((1H-indol-3-yl)methyl)-27-acetamido-15-(4-acetamidobutyl)-12-((5-hydroxy-1H-indol-3-yl)methyl)-24-(4-hydroxybenzyl)-6-((S)-1-hydroxyethyl)-21-(hydroxymethyl)-N,4,16,19-tetramethyl-5,8,11,14,17,20,23,26,30-nonaoxo-18-phenethyl-1,4,7,10,13,16,19,22,25-nonaazacyclotriacontane-3-carboxamido)-3-(4-fluorophenyl)propanamido)-6-(((R)-1,6-diamino-1-oxohexan-2-yl)amino)-6-oxohexyl)carbamoyl)piperazin-1-yl) acetic acid TFA salt
isolated mass (scale 0.375 mmol, TFA salt): 32.5 mg | isolated yield (scale 0.375 mmol, TFA salt): 4.2% yield

(3S,6S,9S,12S,15S,18S,21S,24S,27S)-9-((1H-indol-3-yl)methyl)-27-acetamido-15-(4-acetamidobutyl)-N—((S)-1-(((S)-1,6-diamino-1-oxohexan-2-yl)amino)-3-(4-fluorophenyl)-1-oxopropan-2-yl)-12-((5-hydroxy-1H-indol-3-yl)methyl)-24-(4-hydroxybenzyl)-6-((S)-1-hydroxyethyl)-21-(hydroxymethyl)-N,4,16,19-tetramethyl-5,8,11,14,17,20,23,26,30-nonaoxo-18-phenethyl-1,4,7,10,13,16,19,22,25-nonaazacyclotriacontane-3-carboxamide TFA salt
isolated mass (scale 0.375 mmol, TFA salt): 38.2 mg | isolated yield (scale 0.375 mmol, TFA salt): 5.7% yield

(3R,6S,9S,12S,15S,18S,21S,24S,27S)-9-((1H-indol-3-yl)methyl)-27-amino-N—((S)-1-amino-3-(4-fluorophenyl)-1-oxopropan-2-yl)-6-cyclopropyl-12-((5-hydroxy-1H-indol-3-yl)methyl)-24-(4-hydroxybenzyl)-15,21-bis(hydroxymethyl)-N,4,16,19-tetramethyl-5,8,11,14,17,20,23,26-octaoxo-18-phenethyl-1-thia-4,7,10,13,16,19,22,25-octaazacyclohentriacont-29-yne-3-carboxamide TFA salt
step yield (TFA salt): 46% yield

(6S,9S,12S,15S,18S,21S,24S,27S,30S)-12-((1H-indol-3-yl)methyl)-30-amino-N—((S)-1-amino-3-(4-fluorophenyl)-1-oxopropan-2-yl)-9-cyclopropyl-15-((5-hydroxy-1H-indol-3-yl)methyl)-27-(4-hydroxybenzyl)-18,24-bis(hydroxymethyl)-N,7,19,22-tetramethyl-3,8,11,14,17,20,23,26,29-nonaoxo-21-phenethyl-4,7,10,13,16,19,22,25,28-nonaaza-1 (1,3)-benzenacyclohentriacontaphane-6-carboxamide TFA salt
cyclisation yield (TFA salt): 23% yield

2,2′-(7-(4-(((S)-5-((S)-2-((3S,6S,9S,12S,15S,18S,21S,24S,27S)-9-((1H-indol-3-yl)methyl)-27-acetamido-15-(4-acetamidobutyl)-6-cyclopropyl-12-((5-hydroxy-1H-indol-3-yl)methyl)-24-(4-hydroxybenzyl)-21-(hydroxymethyl)-N,4,16,19-tetramethyl-5,8,11,14,17,20,23,26,31-nonaoxo-18-phenethyl-1,4,7,10,13,16,19,22,25-nonaazacyclohentriacontane-3-carboxamido)-3-(4-fluorophenyl)propanamido)-6-amino-6-oxohexyl)amino)-1-carboxy-4-oxobutyl)-1,4,7-triazonane-1,4-diyl)diacetic acid
conjugation yield (TFA salt): 93.5% yield

(3S,6S,9S,12S,15S,18S,21S,24S,27S)-9-((1H-indol-3-yl)methyl)-15-(4-acetamidobutyl)-N—((S)-1-amino-3-(4-fluorophenyl)-1-oxopropan-2-yl)-27-(1-amino-3,6,9,12,15,18,21,24,27,30-decaoxatritriacontan-33-amido)-6-cyclopropyl-12-((5-hydroxy-1H-indol-3-yl)methyl)-24-(4-hydroxybenzyl)-21-(hydroxymethyl)-N,4,16,19-tetramethyl-5,8,11,14,17,20,23,26,31-nonaoxo-18-phenethyl-1,4,7,10,13,16,19,22,25-nonaazacyclohentriacontane-3-carboxamide TFA salt
conjugation yield (TFA salt): 26% yield

(3S,6S,9S,12S,15S,18S,21S,24S,27S)-9-((1H-indol-3-yl)methyl)-27-amino-N—((S)-1-amino-3-(4-fluorophenyl)-1-oxopropan-2-yl)-6-cyclopropyl-12-((5-hydroxy-1H-indol-3-yl)methyl)-24-(4-hydroxybenzyl)-15,21-bis(hydroxymethyl)-N,4,16,19-tetramethyl-5,8,11,14,17,20,23,26,30-nonaoxo-18-phenethyl-1,4,7,10,13,16,19,22,25-nonaazacyclotriacontane-3-carboxamide TFA 5 salt
cyclisation yield (TFA salt): 35% yield
